# Measurements reported in PubChem BioAssay AID1259279 (Sanger Institute, 2017).
# Purpose: 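Kinase-wide knock-down seeking synergy with BYL719, cetuximab or trametinib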 (primary screen)
# System: LS180 human colorectal cancer cells
# Knock-down reagent: siRNA pool against human genes
# Conditions: anchor drug BYL719 at 1 µM, cetuximab at 5 µg/ml or trametinib at 10 nM, or DMSO vehicle only
# Measured: 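Viability as a fraction of non-targeting control and as a replicate-averaged robust z-score, with separate synergy scores for BYL719, cetuximab and trametinib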
# Reading the numbers: viability z-score, no drug: higher = more viable cells after knock-down; viability, no drug: higher = more viable cells; synergy score with BYL719 and synergy score with cetuximab and synergy score with trametinib: higher = stronger synthetic lethal synergy with drug
# Call rule: 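a knock-down is called active, meaning essential, if its viability z-score in vehicle alone falls below -3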
# Calls: active = essential (knock-down alone cuts viability); inactive = no change without drug
# Here is a random part of 794 reagents tested. In the full data, 11 (1.4%) got an active call. 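Calls reflect knock-down alone in the vehicle arm, not drug synergy.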 No viability above 1 is reported: the scale is capped. The record does not give: the amount of reagent, the time to read-out.
gene symbol,PubChem SID,"viability z-score, no drug","viability, no drug (fraction)",synergy score with BYL719,synergy score with cetuximab,synergy score with trametinib,Outcome
PTGS1 (prostaglandin-endoperoxide synthase 1),SID134310518,0.00242,0.907,0.0168,-0.0508,0.0182,inactive
PPP2R1A (protein phosphatase 2 scaffold subunit Aalpha),SID135621908,0.86,1,-0.153,-0.166,-0.126,inactive
GALK2 (galactokinase 2),SID56479099,0.86,1,0.0975,0.0973,0.0792,inactive
MATK (megakaryocyte-associated tyrosine kinase),SID152153842,-1.41,0.753,-0.254,-0.313,-0.0849,inactive
MLKL (mixed lineage kinase domain like pseudokinase),SID56479010,-0.679,0.832,-0.191,-0.116,-0.125,inactive
NME3 (NME/NM23 nucleoside diphosphate kinase 3),SID135621244,-1.35,0.759,-0.126,-0.123,-0.205,inactive
STK4 (serine/threonine kinase 4),SID56478776,0.86,1,-0.0858,-0.166,0.00109,inactive
NME7 (NME/NM23 family member 7),SID56479121,0.86,1,-0.0807,-0.149,-0.0629,inactive
PAPSS2 (3'-phosphoadenosine 5'-phosphosulfate synthase 2),SID152148635,0.734,0.986,-0.0441,-0.0487,-0.0628,inactive
EIF2AK4 (eukaryotic translation initiation factor 2 alpha kinase 4),SID152146907,0.562,0.968,-0.169,-0.146,-0.0654,inactive
WNK3 (WNK lysine deficient protein kinase 3),SID152156066,0.86,1,-0.178,-0.166,-0.131,inactive
ALDH18A1 (aldehyde dehydrogenase 18 family member A1),SID152152799,0.844,0.998,-0.118,-0.108,-0.0409,inactive

Copied from the list.
Value for NME7 (NME/NM23 family member 7) [SID56479121] in “viability z-score, no drug”: 0.86
Under “viability z-score, no drug”, NME3 (NME/NM23 nucleoside diphosphate kinase 3) [SID135621244] shows -1.35
Result of MLKL (mixed lineage kinase domain like pseudokinase) [SID56479010] under “synergy score with trametinib”: -0.125

More reagents follow:
gene symbol,PubChem SID,"viability z-score, no drug","viability, no drug (fraction)",synergy score with BYL719,synergy score with cetuximab,synergy score with trametinib,Outcome
GRK6 (G protein-coupled receptor kinase 6),SID135620853,0.401,0.95,0.0849,0.0981,0.154,inactive
TBX3 (T-box transcription factor 3),SID134316486,0.86,1,0.004,-0.0273,0.0555,inactive
PRKG2 (protein kinase cGMP-dependent 2),SID56478832,0.86,1,-0.0258,-0.07,0.146,inactive
LIMK1 (LIM domain kinase 1),SID135621436,0.171,0.925,-0.11,-0.177,-0.197,inactive
NEK10 (NIMA related kinase 10),SID56478763,0.86,1,0.0642,0.08,0.0095,inactive
CDK11B (cyclin dependent kinase 11B),SID152152958,0.86,1,-0.0483,-0.0413,-0.0502,inactive
PIK3C2G,SID152155956,-2.35,0.65,-0.0995,-0.103,-0.081,inactive
NEK2 (NIMA related kinase 2),SID56478772,-0.386,0.864,0.00408,-0.123,0.00065,inactive
TYK2 (tyrosine kinase 2),SID135620633,-0.413,0.861,-0.00209,-0.0485,0.0307,inactive
ADGRL2 (adhesion G protein-coupled receptor L2),SID152152166,0.86,1,-0.189,-0.166,-0.0297,inactive
MTOR (mechanistic target of rapamycin kinase),SID135620602,0.86,1,-0.0389,-0.116,0.0165,inactive
RPS6KL1 (ribosomal protein S6 kinase like 1),SID152155635,-1.15,0.781,-0.0966,-0.176,0.0124,inactive
CALM1 (calmodulin 1),SID152156420,-0.976,0.8,-0.133,-0.122,-0.0917,inactive
PRPS1 (phosphoribosyl pyrophosphate synthetase 1),SID56479145,0.86,1,-0.00925,-0.0569,0.0105,inactive
DGUOK (deoxyguanosine kinase),SID152155858,-0.416,0.861,0.0265,0.0274,0.0565,inactive
SRGAP3 (SLIT-ROBO Rho GTPase activating protein 3),SID152151814,0.86,1,-0.15,-0.0881,-0.1,inactive
"RAF1 (Raf-1 proto-oncogene, serine/threonine kinase)",SID152152442,0.86,1,0.0169,0.0781,0.166,inactive
TNNI3K (TNNI3 interacting kinase),SID56478945,0.86,1,-0.144,-0.166,-0.0447,inactive
PDK4 (pyruvate dehydrogenase kinase 4),SID152155412,0.42,0.952,0.0902,-0.00574,0.0301,inactive
